Publication PMC12040169 (PLOS Biology, 2025)
This is one part of the list.

What follows are molecules tested on T1, CTL2-GFP (C. trachomatis L2/434/Bu, GFP-expressing). Details: bulk GFP, single well; 28.5 h, 10 µM; inhibitor.
T1 construct: L2/434/Bu, GFP-expressing
Design: species or system HeLa; Intracellular C. trachomatis growth in HeLa cells, bulk GFP fluorescence relative to DMSO
With `O=C(O)c1cccc(NC(=O)c2cnc(-c3cccc(C(F)(F)F)c3)c(-c3cccc(CO)c3)c2)c1` [CBK037565] the “% of control remaining” value was 126.435%. `O=C(Nc1cccc(-c2csnn2)c1)c1ccco1` [CBK270255] was tested, and the “% of control remaining” value was 124.975%. With `N#Cc1cccc(CN2C[C@H](O)C[C@H]2c2nc(-c3ccc4c(c3)OCO4)no2)c1` [CBK288866] the “% of control remaining” value was 140.121%. `O=S1(=O)CCC(c2nc(-c3ccc(Br)o3)no2)C1` (stereo not drawn) [CBK306134] was tested, and the “% of control remaining” value was 125.273%. With `CN1CCN(C(=O)c2ccc(-c3nccnc3NCCc3cccnc3)cc2)CC1` [CBK036838] the “% of control remaining” value was 130.806%. With `O=C(CS(=O)(=O)c1ccccc1)Nc1ccc(OCc2ccccc2)cc1` [CBK269421] the “% of control remaining” value was 80.2609%. For `CSc1ccccc1C(=O)NCCN(C)C` [CBK269757], the “% of control remaining” value was 106.692%. In the case of `CS(=O)(=O)c1ccc(-n2nnnc2CN2CCC3(CCC3)C2)cc1` [CBK306262], the “% of control remaining” value is reported as 191.515%. With `Cc1ccc(Cc2cnc(NC(=O)CN3CSCC3=O)s2)cc1Cl` [CBK305001] the “% of control remaining” value was 94.1059%. `Cn1cc(C2CCCCN2C(=O)c2cccc(C#N)c2)cn1` (stereo not drawn) [CBK304611] was tested, and the “% of control remaining” value was 126.849%. In the case of `O=C1OC[C@@H](c2ccccc2)N1C(=O)[C@@H]1CN(Cc2ccccc2)C[C@H]1c1cc2ccccc2o1` [CBK022599C], the “% of control remaining” value is reported as 93.5145%. With `COc1ccc(C(C)C)cc1-c1cn2ccnc2c(Nc2cccc(OC(F)(F)C(F)F)c2)n1` [CBK038049] the “% of control remaining” value was 148.481%. With `O=S(=O)(Nc1cccc2cc[nH]c12)c1ccc(F)cc1F` [CBK153586] the “% of control remaining” value was 145.821%. In the case of `O=C(Oc1ccc(F)cc1C(=O)/C=C/c1ccccc1F)c1cccc([N+](=O)[O-])c1` [CBK264859], the “% of control remaining” value is reported as 66.9325%. In the case of `CCOC(=O)c1ccc(C2=NCCC2)[nH]1` [CBK011191], the “% of control remaining” value is reported as 122.578%. For `O=C(NCCCNc1ccc(C(F)(F)F)cc1[N+](=O)[O-])c1ccc(Cl)cc1` [CBK263721], the “% of control remaining” value was 123.323%. For `CC(C)n1ccc2cc(C(=O)NC3CCOC(C)(C)C3)ccc21` (stereo not drawn) [CBK304366], the “% of control remaining” value was 112.45%. In the case of `COCC(=O)N1CCN(C(=O)c2cccc(F)c2)C[C@H]1C(=O)OC` [CBK289608], the “% of control remaining” value is reported as 106.48%. For `CCNC(=O)C1(Cc2ccccc2-c2ccccc2C)CCN(C(=O)C2CCCCC2)CC1` [CBK285717], the “% of control remaining” value was 103.144%. For `CSc1ccccc1-n1nnnc1SCc1ccccc1` [CBK099033], the “% of control remaining” value was 91.5787%. `CCCN1C[C@@H](O)C[C@H]2[C@H](O)[C@@H]1c1ccccc1N2C(=O)OC` [CBK007809] was tested, and the “% of control remaining” value was 100%. For `Cc1cc(O)nc(C(C)N2CCN(Cc3noc(C(C)(C)C)n3)CC2)n1` (stereo not drawn) [CBK305249], the “% of control remaining” value was 125.368%. With `Cc1nc(S(=O)(=O)N2CCC(C(=O)N3CCCCCC3)CC2)cn1C` [CBK305765] the “% of control remaining” value was 188.668%. With `O=C(Nc1ccc(F)cc1)c1ccccc1NS(=O)(=O)c1ccc(C(F)(F)F)cc1[N+](=O)[O-]` [CBK045439] the “% of control remaining” value was 87.4494%. In the case of `Nc1nc(OCCN2CCCC2=O)cnc1-c1cc(Cl)cc(Cl)c1` [CBK145199], the “% of control remaining” value is reported as 152.946%. For `Cc1ccc(-c2nnc(S)n2/N=C\c2ccccc2OCC(=O)O)cc1` [CBK264408], the “% of control remaining” value was 107.613%. In the case of `CCCOCCCNS(=O)(=O)c1ccc(C(C)(C)CC)cc1` [CBK044821], the “% of control remaining” value is reported as 93.985%. With `CC(C(=O)Nc1ccc(S(N)(=O)=O)cc1)N(C)Cc1ccccc1F` (stereo not drawn) [CBK305840] the “% of control remaining” value was 110.641%. `FC(F)CN1CCN(Cc2ccc(Oc3cnccn3)cc2)CC1` [CBK306399] was tested, and the “% of control remaining” value was 116.842%. `COc1ccc([C@@H]2CCN(C(=O)c3cc(F)cc(F)c3)C[C@H]2O)cc1` [CBK283757] was tested, and the “% of control remaining” value was 103.664%. `COC[C@H]1CCCN1C(=O)[C@@H](C)C1CC[C@@]2(C)CC[C@H](NC(C)=O)[C@@H](C)[C@@H]2[C@H]1O` (stereo partly drawn) [CBK289438] was tested, and the “% of control remaining” value was 121.008%. `O=C(c1ccc(-n2cccn2)nc1)N1CCN(c2ccccc2O)CC1` [CBK297794] was tested, and the “% of control remaining” value was 161.581%. In the case of `CC(C)c1ccc(NC(=O)NC(=O)C2CCN(CCOc3ccc4ccccc4c3)CC2)c(C(C)C)c1` [CBK034883], the “% of control remaining” value is reported as 120.479%. In the case of `CCOC(=O)N1CCC(NS(=O)(=O)/C=C/c2ccccc2)CC1` [CBK045458], the “% of control remaining” value is reported as 126.045%. For `O=C(N/N=C\c1ccc(OCc2ccccc2)cc1)C1COc2cc3ccccc3cc2O1` (stereo not drawn) [CBK262764], the “% of control remaining” value was 125.212%. In the case of `CC(NC(=O)c1ccccc1Cn1cccn1)c1ccccn1` (stereo not drawn) [CBK281374], the “% of control remaining” value is reported as 137.745%. In the case of `O=[N+]([O-])c1ccc(N2CCCCC2)s1` [CBK016566], the “% of control remaining” value is reported as 100.043%. For `Cc1cc2ccccc2n2c(=O)n(CC(=O)N(C(C)C)C(C)C)nc12` [CBK283885], the “% of control remaining” value was 126.751%. `CN(C)c1ccc(CC(=O)Nc2cnc(-c3ccc(F)c(Cl)c3)c(-c3ccco3)n2)cc1` [CBK037581] was tested, and the “% of control remaining” value was 156.912%. With `Cc1ccccc1C(NC(=O)C1CCN(C(=O)NCc2ccccc2)CC1)c1ncccc1C` (stereo not drawn) [CBK060398] the “% of control remaining” value was 100%. In the case of `Cc1nnc(NS(=O)(=O)c2ccc(OC(F)(F)F)cc2)s1` [CBK026673], the “% of control remaining” value is reported as 123.115%. With `COc1ccc(C(=O)C2=C(O)C(=O)N(Cc3cccnc3)C2c2cccc([N+](=O)[O-])c2)cc1` (stereo not drawn) [CBK264661] the “% of control remaining” value was 95.2442%. In the case of `O=C(CC1CCN(C(=O)c2ccc3nsnc3c2)CC1)N1CCN(c2ccccc2)CC1` [CBK286266], the “% of control remaining” value is reported as 128.354%. With `CC(=O)Nc1ccc(S(=O)(=O)NCC#N)cc1Cl` [CBK045102] the “% of control remaining” value was 123.085%. `COc1ccccc1N1CCN(c2cc(N3CCNCC3)ccc2[N+](=O)[O-])CC1` [CBK293931] was tested, and the “% of control remaining” value was 147.393%. In the case of `Cc1ccc(OCC(=O)N2CCN(S(=O)(=O)c3ccccc3[N+](=O)[O-])CC2)cc1` [CBK264260], the “% of control remaining” value is reported as 99.8383%. `Cc1nc(SCC(=O)NC(C)c2cccnc2)oc1C` (stereo not drawn) [CBK282198] was tested, and the “% of control remaining” value was 121.525%. For `O=C(CN1CCC[C@@H]1CN1CCCC1)Nc1ncccn1` [CBK149107], the “% of control remaining” value was 124.337%. `CC(=O)NC(c1ccccn1)C1CCCN(C(=O)C2CC2)C1` (stereo not drawn) [CBK285040] was tested, and the “% of control remaining” value was 85.3385%. For `Cc1sc2nc(C)n(C3CCNCC3)c(=O)c2c1C` [CBK282421], the “% of control remaining” value was 107.979%. `Cc1nc(CNc2ccc3nnc(C(F)(F)F)n3n2)cs1` [CBK305674] was tested, and the “% of control remaining” value was 99.2366%. With `CCn1c(CC2CCN(C(=O)c3ccc(C)c(C)c3)CC2)nn(C)c1=O` [CBK307133] the “% of control remaining” value was 143.026%. For `Cc1ccc(OCCn2cncc2-c2cn(C)nc2C)cc1` [CBK281626], the “% of control remaining” value was 103.037%. In the case of `Cc1ccc(CN2C(=O)CSC2c2cn(-c3ccccc3)nc2-c2ccccc2)cc1` (stereo not drawn) [CBK263678], the “% of control remaining” value is reported as 36.2103%. With `O=C(Nc1ccccc1-c1nc2ccccc2s1)c1sc2cc(Cl)ccc2c1Cl` [CBK268642] the “% of control remaining” value was 154.088%. With `CCNC(CO)c1ccccc1` (stereo not drawn) [CBK061785] the “% of control remaining” value was 83.9839%. With `O=C(O)CCC(=O)Nc1ccc(Sc2ccc([N+](=O)[O-])cc2)cc1` [CBK020438] the “% of control remaining” value was 110.674%. For `Cc1cc(C(F)(F)F)nc2sc(C(=O)c3ccc4c(c3)OCO4)c(N)c12` [CBK074388], the “% of control remaining” value was 115.967%. `Cc1ccc(C)c(C2CCCN2C(=O)c2cccn(CC(=O)NC3CCCCC3)c2=O)c1` (stereo not drawn) [CBK286010] was tested, and the “% of control remaining” value was 125.487%. `O=C(O)c1ccc(S(=O)(=O)NCC2CCCO2)cc1` (stereo not drawn) [CBK262364] was tested, and the “% of control remaining” value was 143.692%. With `Cc1ccc(N(CC(=O)N/N=C/C(C)C)S(=O)(=O)c2ccccc2)c(C)c1` [CBK262397] the “% of control remaining” value was 96.0483%. `Cn1c(=O)n(CC(=O)NC2(C)C3CCC(C3)C2(C)C)c2cccnc21` (stereo not drawn) [CBK283330] was tested, and the “% of control remaining” value was 120.243%. With `CN(C)C(=O)c1cc(-c2ccco2)cnc1NS(C)(=O)=O` [CBK076490] the “% of control remaining” value was 103.869%. With `CC1(C)N=C(c2ccc(Cl)cc2Cl)C(=S)N1` [CBK288449] the “% of control remaining” value was 107.792%. For `COCCn1c(CN2CCOCC2)nc2c1c(=O)[nH]c(=O)n2C` [CBK269890], the “% of control remaining” value was 107.28%. For `Cn1nc(-c2ccc(S(=O)(=O)Nc3cccc(C(=O)O)c3)s2)cc1C(F)(F)F` [CBK155080], the “% of control remaining” value was 140.387%. With `CC1=CC(C)(NC(N)=O)NC(=S)N1` (stereo not drawn) [CBK020817] the “% of control remaining” value was 95.4335%. For `O=C1NCCN(C(=O)c2cccc3cccnc23)C1Cc1ccc(-c2cccs2)cc1` (stereo not drawn) [CBK285809], the “% of control remaining” value was 94.1108%. In the case of `O=C(CC1CCCCC1)N1CCC2(CCCNC2)C1` (stereo not drawn) [CBK137154C], the “% of control remaining” value is reported as 108.068%. With `C=CCNc1nccnc1-c1cccnc1` [CBK037016] the “% of control remaining” value was 160.83%. For `CCc1cnc(CNC(=O)NCc2nc3cc(C)ccc3n2C)s1` [CBK306261], the “% of control remaining” value was 150.914%. `Cc1ccc2nc(-c3ccccn3)cc(C(=O)NCc3ccccn3)c2c1` [CBK267782] was tested, and the “% of control remaining” value was 137.936%. `Cc1nc([N+](=O)[O-])c(C(=O)OCc2ccccc2C#N)n1C` [CBK293991] was tested, and the “% of control remaining” value was 164.084%. For `S=C1NC2(CCCCC2)NC12CCCCC2` [CBK006533], the “% of control remaining” value was 122.382%. `Cc1ccc(-c2noc(CN(C(=O)c3ccc(Br)o3)C(C)C)n2)cc1` [CBK269440] was tested, and the “% of control remaining” value was 112.689%. In the case of `CC(C)Nc1cccnc1N(C)C1CCN(C(=O)c2cc(Br)c[nH]2)CC1` [CBK016797], the “% of control remaining” value is reported as 125.783%. `O=C(C1CC1)N1CCCc2cc(C(O)CN3CCCCC3)ccc21` (stereo not drawn) [CBK282135] was tested, and the “% of control remaining” value was 164.785%. `O=C1CN(S(=O)(=O)CCOc2ccccc2)CC(=O)N1CCc1ccccc1` [CBK261134] was tested, and the “% of control remaining” value was 100.673%.
